Test results: PubChem BioAssay AID248 (DTP/NCI, 2004)
The list is a part of this screen's results and no random one: it is rich in T/C values a quarter to a half above the control, in often repeated tests (any T/C) and in doses without a T/C. Further doses and runs are listed elsewhere. T/C is the treated group as % of the vehicle group. Some doses have a count of surviving animals in place of a T/C: the source holds a T/C of zero for them, seemingly a mark for toxic or unscored doses. Some doses without a T/C left all or most animals alive at the check, yet need not have been tolerated: the source hardly ever lists a survival T/C far under the control, and the zero likely stands for such cases as well. Survivors were counted at the toxicity check, usually on the fifth day, unless a day is given; later deaths do not show. Schedules are NCI's codes, taken here to give the interval after Q, in days (D) or hours (H), and the number of doses after X. Some schedule codes hold Z or #, which are not explained here.

Test system: L1210 leukemia ip in BDF1 mice, survival T/C
Experiment: NCI In Vivo Anticancer Drug Screen. Data for tumor model L1210 Leukemia (intraperitoneal) in B6D2F1 (BDF1) mice
Settings: T/C endpoint: mean survival time, higher T/C = longer survival
[1] = dose: 400.0 mg/kg/injection, schedule: Q04DX003 (ip), vehicle: saline with Tween-80
[2] = dose: 100.0 mg/kg/injection, schedule: Q01DX009 (ip), vehicle: Klucel (hydroxypropylcellulose) (HPC)
[3] = dose: 200.0 mg/kg/injection, schedule: Q01DX009 (ip), vehicle: Klucel (hydroxypropylcellulose) (HPC)
[4] = dose: 400.0 mg/kg/injection, schedule: Q01DX009 (ip), vehicle: Klucel (hydroxypropylcellulose) (HPC)

c1ccn(-c2nccs2)c1
survivor count [1]: 0 of 6

CCOC(=O)Nc1cc(Cl)c([N+](=O)[O-])c(NC(=O)OCC)n1
survivor count (dose: 400.0 mg/kg/injection, schedule: Q01DX001 (ip), vehicle: other): 1 of 4

CNc1cc(C(C)C)ccc1C
survivor count [2]: 1 of 6 | survivor count [3]: 0 of 6 | survivor count [4]: 0 of 6

O=C(CCN1CCC2CCC(C2)C1)c1ccccc1C(F)(F)F (stereo not given)
survivor count (dose: 100.0 mg/kg/injection, schedule: Q01DX001 (ip), vehicle: carboxymethylcellulose (CMC)): 2 of 4 | survivor count (dose: 200.0 mg/kg/injection, schedule: Q01DX001 (ip), vehicle: carboxymethylcellulose (CMC)): 0 of 4 | survivor count (dose: 400.0 mg/kg/injection, schedule: Q01DX001 (ip), vehicle: carboxymethylcellulose (CMC)): 0 of 4

CCN(CC)CCNc1ccc(CO)c2oc3cc(Cl)ccc3c(=O)c12
survivor count (dose: 250.0 mg/kg/injection, schedule: Q01DX009 (ip), vehicle: Klucel (hydroxypropylcellulose) (HPC)): 3 of 6

CCC(CO)NC1CCCCC1 (stereo not given)
survivor count (dose: 150.0 mg/kg/injection, schedule: Q01DX001 (ip), vehicle: carboxymethylcellulose (CMC)): 0 of 6 | survivor count (dose: 300.0 mg/kg/injection, schedule: Q01DX001 (ip), vehicle: carboxymethylcellulose (CMC)): 0 of 6

CN=C(N)c1ccc(N=C(N)c2cccc(C(N)=Nc3ccc(C(N)=NC)cc3)c2)cc1
survivor count (dose: 60.0 mg/kg/injection, schedule: Q01DX Z (ip), vehicle: saline): 0 of 6 | survivor count (dose: 120.0 mg/kg/injection, schedule: Q01DX Z (ip), vehicle: saline): 0 of 6

CCC(C)C(CCN(CC)CC)(CNC(=O)CN(CC)CC)c1cccc2ccccc12 (stereo not given)
survivor count (dose: 200.0 mg/kg/injection, schedule: Q01DX009 (ip), vehicle: saline): 2 of 6 | survivor count (dose: 400.0 mg/kg/injection, schedule: Q01DX009 (ip), vehicle: saline): 0 of 6

CCOC(=O)CCC1(CN2c3ccccc3Sc3ccccc32)CCN(C)C1 (stereo not given)
survivor count (dose: 150.0 mg/kg/injection, schedule: Q04DX003 (ip), vehicle: saline): 4 of 6 | survivor count (dose: 200.0 mg/kg/injection, schedule: Q01DX001 (ip), vehicle: saline): 1 of 6 | survivor count (dose: 225.0 mg/kg/injection, schedule: Q04DX003 (ip), vehicle: saline): 3 of 6 | survivor count (dose: 335.0 mg/kg/injection, schedule: Q04DX003 (ip), vehicle: saline): 0 of 6 | survivor count (dose: 400.0 mg/kg/injection, schedule: Q01DX001 (ip), vehicle: saline): 0 of 6

CC(C)=CCCC(C)C/C=N\O (stereo not given)
survivor count (dose: 400.0 mg/kg/injection, schedule: Q01DX009 (ip), vehicle: saline with Tween-80): 6 of 6

CCOc1ccc(NC(=O)Nc2cccc3ccccc23)cc1
survivor count (dose: 200.0 mg/kg/injection, schedule: Q04DX003 (ip), vehicle: Klucel (hydroxypropylcellulose) (HPC)): 1 of 6

COc1ccc2c(c1O)-c1cc(O)cc3c1C(C2)NCC3 (stereo not given)
survivor count (dose: 5.0 mg/kg/injection, schedule: Q04DX003 (ip), vehicle: DMSO): 6 of 6 | survivor count (dose: 10.0 mg/kg/injection, schedule: Q04DX003 (ip), vehicle: DMSO): 4 of 6

CCCCCCCCCC(=O)NN=C(C)C
survivor count [2]: 5 of 6 | survivor count [3]: 0 of 6 | survivor count [4]: 0 of 6

OC(CN1CCCCC1)c1cccs1 (stereo not given)
survivor count (dose: 100.0 mg/kg/injection, schedule: Q04DX003 (ip), vehicle: saline with Tween-80): 6 of 6 | survivor count (dose: 200.0 mg/kg/injection, schedule: Q04DX003 (ip), vehicle: saline with Tween-80): 3 of 6 | survivor count [1]: 0 of 6
